Data as given in PubChem BioAssay AID686943 (Drosophila RNAi Screening Center, 2013)

- Test: 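Fly genes whose loss alters ERK activation after insulin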 (primary screen)
- Cells: Drosophila S2R+ haemocyte-like cells expressing YFP-tagged ERK (Rolled)
- Reagents: long dsRNA against Drosophila genes
- Challenge: insulin stimulation versus unstimulated cells; dose and duration not given
- Read-out: 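Per-plate z-scores of phospho-ERK immunostaining normalised to YFP-tagged ERK, measured with and without insulin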
- Direction: replicate 1, z-score of dpERK with insulin: higher = more active ERK per ERK-YFP after insulin
The deposit covers about 23,000 reagents; shown is an unselected part of those with a known target gene and a result. 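Extra replicates exist only for a retested subset of genes; insulin dose and duration not given; both raised and lowered dpERK matter.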 The numbers tell different reagents against one gene apart. A plus sign joins genes that one reagent is predicted to hit. Further read-outs or replicates are left out here. No sequences are given here. The record does not give: the amount of reagent, the time to read-out.

CG9577 gave replicate 1, z-score of dpERK with insulin 1.54.
Depletion of CG14374 came out at: replicate 1, z-score of dpERK with insulin -0.1.
After knock-down of CG5149 the results were replicate 1, z-score of dpERK with insulin 0.64.
CG15347 showed replicate 1, z-score of dpERK with insulin 0.55.
For Hsp26 (Heat shock protein 26), the entry reads replicate 1, z-score of dpERK with insulin -0.15.
With knock-down of CG43058 the results were replicate 1, z-score of dpERK with insulin -0.15.
After knock-down of CG14658, the record shows replicate 1, z-score of dpERK with insulin -1.26.
For CG13193 the deposit lists replicate 1, z-score of dpERK with insulin 0.52.
CG33673 showed replicate 1, z-score of dpERK with insulin 0.47.
Depletion of CG31909 resulted in: replicate 1, z-score of dpERK with insulin 0.11.
Against eIF2Bbeta (eukaryotic translation initiation factor 2B subunit beta), the values are replicate 1, z-score of dpERK with insulin 0.18.
cpx (complexin) scored replicate 1, z-score of dpERK with insulin 0.8.
For CG32512 #1 the deposit lists replicate 1, z-score of dpERK with insulin 0.78.
With knock-down of CG32512 #2, the screen gave replicate 1, z-score of dpERK with insulin 0.52.
Depletion of CG32512 #3 gave: replicate 1, z-score of dpERK with insulin -1.44.
For Cpr64Ab (Cuticular protein 64Ab), the entry reads replicate 1, z-score of dpERK with insulin -0.41.
For CG14607, the entry reads replicate 1, z-score of dpERK with insulin 1.06.
Against Hmgs (HMG Coenzyme A synthase), the values are replicate 1, z-score of dpERK with insulin -0.5.
Asciz (ASCIZ zinc finger protein) gave replicate 1, z-score of dpERK with insulin -1.11.
For kappaB-Ras + CG30503 #1 the deposit lists replicate 1, z-score of dpERK with insulin 0.98.
After knock-down of kappaB-Ras + CG30503 #2, the record shows replicate 1, z-score of dpERK with insulin 1.16.
Ccp84Ac showed replicate 1, z-score of dpERK with insulin 0.68.
CG30339 showed replicate 1, z-score of dpERK with insulin -0.07.

No new results follow: 5 of the entries above.
Hmgs (HMG Coenzyme A synthase) → replicate 1, z-score of dpERK with insulin = -0.5
Asciz (ASCIZ zinc finger protein) → replicate 1, z-score of dpERK with insulin = -1.11
kappaB-Ras + CG30503 #1 → replicate 1, z-score of dpERK with insulin = 0.98
kappaB-Ras + CG30503 #2 → replicate 1, z-score of dpERK with insulin = 1.16
Ccp84Ac → replicate 1, z-score of dpERK with insulin = 0.68

Additional reagents follow:
After knock-down of RabGGTb (Rab geranylgeranyltransferase subunit beta), the screen gave replicate 1, z-score of dpERK with insulin 0.3.
Against tsg (twisted gastrulation), the entry reads replicate 1, z-score of dpERK with insulin 0.46.
Knock-down of CG4025 resulted in: replicate 1, z-score of dpERK with insulin 0.57.
Silencing of CG34451 #1 came out at: replicate 1, z-score of dpERK with insulin -1.6.
After knock-down of CG34451 #2, the record shows replicate 1, z-score of dpERK with insulin 0.76.
With knock-down of CG18675, the screen gave replicate 1, z-score of dpERK with insulin -0.22.
After knock-down of CG11262 the results were replicate 1, z-score of dpERK with insulin 0.38.
After knock-down of CG16965 the results were replicate 1, z-score of dpERK with insulin -0.29.
Knock-down of CG14907 + Mettl4 #1 came out at: replicate 1, z-score of dpERK with insulin 0.33.
CG14907 + Mettl4 #2 showed replicate 1, z-score of dpERK with insulin 0.38.
Depletion of Ctf4 (Chromosome transmission fidelity 4) gave: replicate 1, z-score of dpERK with insulin 0.2.
For Zw10 (Zeste-white 10), the entry reads replicate 1, z-score of dpERK with insulin -0.94.
His3:CG33818 + His3:CG33857 + His3:CG33806 + 20 more gave replicate 1, z-score of dpERK with insulin -5.37.
For CG10195 the deposit lists replicate 1, z-score of dpERK with insulin 1.19.
Knock-down of CG14450 resulted in: replicate 1, z-score of dpERK with insulin -1.07.
With knock-down of Mon1 (Monensin sensitivity 1) the results were replicate 1, z-score of dpERK with insulin -0.27.
Knock-down of Moe (Moesin) resulted in: replicate 1, z-score of dpERK with insulin -1.24.
